At least one structure is not confirmed: it was looked up by name or label, or the drawing left a doubt.
Tested on: Nestin^pos progenitor cells from clonal-derived c-kit^pos eCSCs
Assay: neurogenic differentiation of Nestin^pos cells from clonal c-kit^pos eCSCs
Format: cell-based, rat
Details: differentiation medium, 7 days
Excerpt: It has been previously shown that cardiac side population cells that express the neural progenitor marker, Nestin, can be induced to differentiate into the ectoderm layer, producing neurons and glial cells (15). We then purified for a population of Nestin^pos progenitor cells from clonal-derived c-kit^pos eCSCs. When placed into differentiation medium supplemented with Retinoic Acid or LIF for 7 days, we found up-regulation of GFAP, MATH2/NeuroD6, a neuron specific transcription factor (FIG. 3C), β-3 tubulin arrayed in filaments and bundles (FIG. 3C), neuron-specific enolase (FIG. 3C), acetylcholintransferase (FIG. 3C), doublecortin (DCX), and S-100β (FIG. 3C). Furthermore, after RA differentiation, cells had characteristics of neuronal dendrites, indicating a morphological change that resembled neurons (FIG. 3C).

CC1=C(/C=C/C(C)=C/C=C/C(C)=C/C(=O)O)C(C)(C)CCC1 [Retinoic Acid]
expression of neural markers (GFAP, MATH2/NeuroD6, β-3 tubulin and others): up-regulation
